Reference: US20100168125A1, “INDOLIZINES AND AZA-ANALOG DERIVATIVES THEREOF AS CNS ACTIVE COMPOUNDS” (priority 2007, published 2010)

Sequences of proteins named here, by UniProt entry; tags and fusion partners are left off.
UniProt P50129, whole entry: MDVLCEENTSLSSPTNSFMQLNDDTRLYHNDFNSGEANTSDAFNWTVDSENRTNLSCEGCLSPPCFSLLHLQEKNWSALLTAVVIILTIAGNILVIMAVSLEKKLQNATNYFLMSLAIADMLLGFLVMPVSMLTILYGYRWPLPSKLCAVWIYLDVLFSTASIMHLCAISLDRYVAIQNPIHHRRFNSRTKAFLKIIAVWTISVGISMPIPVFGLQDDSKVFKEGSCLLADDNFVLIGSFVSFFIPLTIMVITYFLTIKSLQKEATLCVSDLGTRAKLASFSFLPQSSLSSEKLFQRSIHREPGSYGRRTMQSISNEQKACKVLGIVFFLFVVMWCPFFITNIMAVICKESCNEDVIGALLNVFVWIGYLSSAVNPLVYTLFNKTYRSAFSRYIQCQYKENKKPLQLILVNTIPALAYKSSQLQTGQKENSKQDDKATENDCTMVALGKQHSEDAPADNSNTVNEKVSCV

Tests used:
5-HT1A receptor = target: T1, 5-HT1A receptor (Sus scrofa, UniProt A0A4X1UTF5); experiment: radioligand binding, porcine cortical membranes, [^3H]8-OH-DPAT and [^3H]WAY 100635; conditions: Ki 5-HT1a
T1 construct: membrane preparations from porcine cortical material; from tissue; host or cells: porcine cerebral cortex membranes
T1 sequence (A0A4X1UTF5 1-422): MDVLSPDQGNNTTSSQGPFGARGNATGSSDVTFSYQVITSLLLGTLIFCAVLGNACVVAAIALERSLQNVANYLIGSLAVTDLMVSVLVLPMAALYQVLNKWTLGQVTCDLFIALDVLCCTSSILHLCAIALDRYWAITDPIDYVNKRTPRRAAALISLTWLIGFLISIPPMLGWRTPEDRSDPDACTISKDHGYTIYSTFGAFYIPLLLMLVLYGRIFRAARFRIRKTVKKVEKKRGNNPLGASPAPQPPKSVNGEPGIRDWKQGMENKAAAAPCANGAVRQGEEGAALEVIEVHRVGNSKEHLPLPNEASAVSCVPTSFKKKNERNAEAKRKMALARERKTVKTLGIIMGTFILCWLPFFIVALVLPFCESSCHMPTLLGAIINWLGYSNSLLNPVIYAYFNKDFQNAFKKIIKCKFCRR

5-HT2 receptor = target: T2, 5-HT2 receptor (Sus scrofa, UniProt P50129); experiment: radioligand binding, porcine cortical membranes, [^3H]ketanserin
T2 construct: membrane preparations from porcine cortical material; from tissue; host or cells: porcine cerebral cortex membranes

Compound `O=C1CCc2ccc(OCCCCN3CCN(c4cccc(Cl)c4Cl)CC3)cc2N1` [aripiprazole, reference compound] has a Ki (5-HT1A receptor) of 30 to 300 nM and a Ki (5-HT2 receptor) of 301 to 3000 nM.
